# The supplement of paper PMC8960247
# Counter-ions that a name gives are not always drawn. Single values of this set are uncertain.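 The cells are immortalized human renal angiomyolipoma cells carrying an empty vector, so TSC2 stays lost. Viability was read by a luminescent ATP assay and normalized to vehicle-treated wells on each plate, in low-serum medium where TSC2-rescued cells do not grow.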
# System: 621-102 (TSC2-deficient)
# Test: relative viability vs DMSO (fraction); higher = less cytotoxic
# Details: serum: 0.1% FBS, 72 h
Compound,relative viability (0.0128 nM),relative viability (0.064 nM),relative viability (0.32 nM),relative viability (1.6 nM),relative viability (8 nM),relative viability (40 nM),relative viability (200 nM),relative viability (1000 nM),relative viability (5000 nM)
CCOC(=O)C1=C(COCCN)NC(C)=C(C(=O)OC)C1c1ccccc1Cl (stereo not given) [Amlodipine besylate (Norvasc)],0.907,0.958,0.964,0.831,0.885,0.831,0.826,0.708,0.525
CC(C)(C#N)c1cc(Cn2cncn2)cc(C(C)(C)C#N)c1 [Anastrozole],0.854,0.901,0.879,0.848,0.79,0.763,0.867,0.727,0.758
N#CC1(c2ccc(NC(=O)c3cccnc3NCc3ccncc3)cc2)CCCC1 [Apatinib],1.18,1.18,0.346,0.148,0.383,0.333,0.3,0.536,0.579
COc1ccc(-n2nc(C(N)=O)c3c2C(=O)N(c2ccc(N4CCCCC4=O)cc2)CC3)cc1 [Apixaban],0.694,0.722,0.802,0.848,0.726,0.788,0.726,0.591,0.346
COc1cc(OC)c(OC)cc1C=O [Asaraldehyde],0.593,0.838,0.894,0.934,1.02,0.903,0.956,0.354,0.725
CN1CC2c3ccccc3Oc3ccc(Cl)cc3C2C1 (stereo not given) [Asenapine],1.25,1.29,1.53,1.49,1.07,0.858,1.17,1.43,1.23
CN1[C@@H]2CC[C@H]1C[C@@H](OC(=O)C(CO)c1ccccc1)C2 (stereo not given in full) [Atropine],0.681,0.72,0.678,0.729,0.725,0.732,0.751,0.742,0.704
CCN1CCN(C(=O)Cc2ccc(Nc3ncc(F)c(Nc4ccc(C(=O)Nc5ccccc5Cl)cc4)n3)cc2)CC1 [Aurora A Inhibitor I],0.785,0.758,0.828,0.898,0.738,0.662,0.379,0.0643,0.00866
CC(C)c1cc(C(C)C)c(CC(=O)NS(=O)(=O)Oc2c(C(C)C)cccc2C(C)C)c(C(C)C)c1 [Avasimibe],0.631,0.652,0.184,0.191,0.11,0.172,0.284,0.193,0.0444
CNC(=O)c1ccccc1Sc1ccc2c(/C=C/c3ccccn3)n[nH]c2c1 [Axitinib],0.938,0.873,0.807,0.894,0.853,0.906,0.821,0.14,0.0268
CN1CCCC(n2nc(Cc3ccc(Cl)cc3)c3ccccc3c2=O)CC1 (stereo not given) [Azelastine HCl],0.641,0.145,0.788,0.875,0.868,0.771,0.764,0.747,0.633
CC[C@@H]1C(=O)N(C)c2cnc(Nc3ccc(C(=O)NC4CCN(C)CC4)cc3OC)nc2N1C1CCCC1 [BI 2536],0.703,0.593,0.718,0.536,0.0261,0.00854,0.0144,0.0339,0.00858
CC[C@@H]1C(=O)N(C)c2cnc(Nc3ccc(C(=O)N[C@H]4CC[C@H](N5CCN(CC6CC6)CC5)CC4)cc3OC)nc2N1C(C)C [BI 6727],0.706,0.695,0.747,0.702,0.673,0.0558,0.0271,0.0476,0.00974
Cn1c(CNc2ccc(C(=N)N)cc2)nc2cc(C(=O)N(CCC(=O)O)c3ccccn3)ccc21 [BIBR 953],0.814,0.822,0.724,0.798,0.795,0.846,0.72,0.598,0.663
CN(C)C/C=C/C(=O)Nc1cc2c(Nc3ccc(F)c(Cl)c3)ncnc2cc1O[C@H]1CCOC1 [BIBW2992],0.776,0.721,0.705,0.656,0.616,0.611,0.56,0.28,0.0129
COc1c(C)cnc(Cn2cnc3c(Cl)nc(N)nc32)c1C [BIIB021],0.806,0.955,0.893,0.704,0.696,0.675,0.678,0.863,0.634
Cc1ccc(-n2nc(C(C)(C)C)cc2NC(=O)Nc2ccc(OCCN3CCOCC3)c3ccccc23)cc1 [BIRB 796 (Doramapimod)],1.03,0.89,0.999,1.04,0.945,0.972,0.951,1.04,1.08
Nc1cc(C(F)(F)F)c(-c2cc(N3CCOCC3)nc(N3CCOCC3)n2)cn1 [BKM120 (NVP-BKM120)],0.939,1.02,0.97,0.894,0.929,1.02,0.877,0.852,0.0802
COc1ccnc2[nH]cc(C(=O)C(=O)N3CCN(C(=O)c4ccccc4)C[C@H]3C)c12 [BMS-806],0.797,0.822,0.87,0.822,0.851,0.73,0.837,0.808,0.739
COc1ccccc1N1CCN(CCN2C(=O)CC3(CCCC3)CC2=O)CC1 [BMY 7378],0.089,0.341,0.722,0.77,0.624,0.652,0.851,1.13,0.588
CC(C)c1cnn2c(NCc3ccccc3)cc(NCCCCCCN)nc12 [BS-181 hydrochloride],0.899,0.919,0.829,0.883,0.791,0.769,0.724,0.445,0.00989
NC(=O)c1ccc(I)c([N+](=O)[O-])c1 [BSI-201],0.885,0.909,0.915,0.848,0.849,0.794,0.782,0.729,0.817
O=C(O)[C@H]1O[C@@H](Oc2cc3oc(-c4ccccc4)cc(=O)c3c(O)c2O)[C@H](O)[C@@H](O)[C@@H]1O [Baicalin],1.32,1.33,1.41,1.22,0.665,0.788,1.04,1.07,0.593

# An excerpt of these results, as tab-separated lines:
Compound	relative viability (0.0128 nM)	relative viability (0.064 nM)	relative viability (0.32 nM)	relative viability (1.6 nM)	relative viability (8 nM)	relative viability (40 nM)	relative viability (200 nM)	relative viability (1000 nM)	relative viability (5000 nM)
CC(C)(C#N)c1cc(Cn2cncn2)cc(C(C)(C)C#N)c1 [Anastrozole]	0.854	0.901	0.879	0.848	0.79	0.763	0.867	0.727	0.758
CCN1CCN(C(=O)Cc2ccc(Nc3ncc(F)c(Nc4ccc(C(=O)Nc5ccccc5Cl)cc4)n3)cc2)CC1 [Aurora A Inhibitor I]	0.785	0.758	0.828	0.898	0.738	0.662	0.379	0.0643	0.00866
COc1c(C)cnc(Cn2cnc3c(Cl)nc(N)nc32)c1C [BIIB021]	0.806	0.955	0.893	0.704	0.696	0.675	0.678	0.863	0.634
NC(=O)c1ccc(I)c([N+](=O)[O-])c1 [BSI-201]	0.885	0.909	0.915	0.848	0.849	0.794	0.782	0.729	0.817

# (list continues)

Compound,relative viability (0.0128 nM),relative viability (0.064 nM),relative viability (0.32 nM),relative viability (1.6 nM),relative viability (8 nM),relative viability (40 nM),relative viability (200 nM),relative viability (1000 nM),relative viability (5000 nM)
O=C(/C=C/c1cccc(S(=O)(=O)Nc2ccccc2)c1)NO [Belinostat (PXD101)],1.43,1.7,1.79,1.57,1.13,0.84,0.86,0.269,0.0349
CCOC(=O)[C@H](CCc1ccccc1)N[C@H]1CCc2ccccc2N(CC(=O)O)C1=O [Benazepril HCl],0.632,0.66,0.816,0.734,0.767,0.764,0.793,0.736,0.811
NC(CO)C(=O)NNCc1ccc(O)c(O)c1O (stereo not given) [Benserazide HCl],0.965,0.961,0.918,0.907,0.754,0.777,0.588,0.485,0.569
CC(C[N+](C)(C)C)OC(N)=O (stereo not given) [Bethanechol chloride],0.807,0.638,0.772,0.784,0.665,0.587,0.592,0.547,0.511
CC(O)(CS(=O)(=O)c1ccc(F)cc1)C(=O)Nc1ccc(C#N)c(C(F)(F)F)c1 (stereo not given) [Bicalutamide],0.8,0.842,0.785,0.828,0.807,0.972,0.822,0.7,0.462
CC(C)NCC(O)COc1ccc(COCCOC(C)C)cc1 (stereo not given) [Bisoprolol fumarate],0.793,0.802,0.892,0.767,0.814,0.742,0.771,0.885,0.777
CC(C)C[C@H](NC(=O)[C@H](Cc1ccccc1)NC(=O)c1cnccn1)B(O)O [Bortezomib (PS-341)],1.21,1.55,1.7,0.668,0.0283,0.0144,0.0159,0.0132,0.00889
COc1cc(Nc2c(C#N)cnc3cc(OCCCN4CCN(C)CC4)c(OC)cc23)c(Cl)cc1Cl [Bosutinib (SKI-606)],0.624,0.734,0.817,0.779,0.842,0.876,0.915,0.0137,0.0117
CCCCN1CCCCC1C(=O)Nc1c(C)cccc1C (stereo not given) [Bupivacaine HCl],0.779,0.866,0.908,0.88,0.919,0.74,0.655,0.658,0.327
CC[C@H](Nc1ncnc2[nH]cnc12)c1nc2cccc(F)c2c(=O)n1-c1ccccc1 [CAL-101],0.538,1.07,1.03,1.07,0.904,1.16,0.952,0.834,0.719
CC(C)C[C@@H](C(=O)N[C@H](C(=O)OC1CCCC1)c1ccccc1)[C@H](O)C(=O)NO [CHR-2797],0.815,0.849,0.742,0.79,0.611,0.551,0.403,0.263,0.254
C=CC(=O)Nc1cc2c(Nc3ccc(F)c(Cl)c3)ncnc2cc1OCCCN1CCOCC1 [CI-1033(Canertinib)],0.843,0.809,0.685,0.82,0.804,0.827,0.779,0.704,0.0103
C#Cc1cccc(Nc2ncnc3cc(OC)c(OCCCCCCC(=O)NO)cc23)c1 [CUDC-101],0.88,0.871,0.938,1,0.653,0.722,0.159,0.00665,0.00752
O=C(O)c1ccc2c(c1)nc(Nc1cccc(Cl)c1)c1ccncc12 [CX-4945 (Silmitasertib)],0.999,0.928,0.811,0.808,0.877,0.852,0.893,0.827,0.375
Cc1nc(N)sc1-c1ccnc(Nc2ccc(N3CCOCC3)cc2)n1 [CYC116],0.758,0.569,0.528,0.527,0.654,0.629,0.612,0.0404,0.0257
CCC[C@H](Nc1nc(-c2ccc(NC(=O)NCC)c(OC)c2)ncc1C)c1cccnc1 [CYT997],0.888,0.835,0.849,0.798,0.809,0.472,0.0393,0.0172,0.0166
CCOc1nc2cccc(C(=O)OC(C)OC(=O)OC3CCCCC3)c2n1Cc1ccc(-c2ccccc2-c2nn[nH]n2)cc1 (stereo not given) [Candesartan Cilexetil],0.799,0.943,0.16,0.174,0.115,0.144,0.154,0.117,0.0636
NC(=O)N1c2ccccc2C=Cc2ccccc21 [Carbamazepine],0.714,0.675,0.766,0.791,0.639,0.638,0.564,0.655,0.739
C[C@@](Cc1ccc(O)c(O)c1)(NN)C(=O)O [Carbidopa],0.628,0.73,0.736,0.734,0.683,0.717,0.633,0.206,0.583
CO/N=C(\C(=O)N[C@@H]1C(=O)N2C(C(=O)O)=C(CSC(=O)c3ccco3)CS[C@H]12)c1csc(N)n1 [Ceftiofur HCl],0.598,0.698,0.597,0.568,0.64,0.585,0.657,0.715,0.717
CN(C)CCCN1c2ccccc2Sc2ccc(Cl)cc21 [Chlorpromazine HCl],0.757,0.75,0.788,0.796,0.789,0.779,0.738,0.644,0.0672
CN(C)CC/C=C1/c2ccccc2Sc2ccc(Cl)cc21 [Chlorprothixene],0.867,0.842,0.887,0.774,0.764,0.727,0.75,0.819,0.836
